Our source for the binding values is article PMC6465387.

Sequences of proteins named here, by UniProt entry; tags and fusion partners are left off. A change or cut given only in a name is not applied to a line headed by its entry.
UniProt B7EQ08: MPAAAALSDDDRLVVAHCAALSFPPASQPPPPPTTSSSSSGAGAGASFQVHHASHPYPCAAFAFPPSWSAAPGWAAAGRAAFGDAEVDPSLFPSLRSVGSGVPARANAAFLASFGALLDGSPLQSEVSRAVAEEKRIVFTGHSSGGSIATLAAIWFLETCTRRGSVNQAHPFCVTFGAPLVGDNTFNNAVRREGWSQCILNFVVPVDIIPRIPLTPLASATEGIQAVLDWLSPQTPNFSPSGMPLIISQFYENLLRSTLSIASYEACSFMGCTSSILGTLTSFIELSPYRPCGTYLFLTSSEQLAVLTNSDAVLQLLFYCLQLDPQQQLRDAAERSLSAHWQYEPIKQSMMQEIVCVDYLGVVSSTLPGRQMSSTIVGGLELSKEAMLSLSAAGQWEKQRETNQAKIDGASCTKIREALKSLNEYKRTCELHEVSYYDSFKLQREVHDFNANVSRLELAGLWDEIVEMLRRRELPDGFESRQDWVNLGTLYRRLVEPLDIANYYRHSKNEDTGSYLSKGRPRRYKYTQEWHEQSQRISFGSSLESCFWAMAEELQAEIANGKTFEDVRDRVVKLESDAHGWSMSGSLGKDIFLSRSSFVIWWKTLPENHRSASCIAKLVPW

Results are given in words; binding and its absence hold for the method and conditions named. Binding seen in cells or lysates may run through a third protein. A result given as binding can be weak or reduced; the word gives no strength. Sequences can lack the tags named with a protein.

The target of the test is T1, AtPAD4-nYFP (Arabidopsis (Col-0)) (UniProt Q9S745).
T1 sequence: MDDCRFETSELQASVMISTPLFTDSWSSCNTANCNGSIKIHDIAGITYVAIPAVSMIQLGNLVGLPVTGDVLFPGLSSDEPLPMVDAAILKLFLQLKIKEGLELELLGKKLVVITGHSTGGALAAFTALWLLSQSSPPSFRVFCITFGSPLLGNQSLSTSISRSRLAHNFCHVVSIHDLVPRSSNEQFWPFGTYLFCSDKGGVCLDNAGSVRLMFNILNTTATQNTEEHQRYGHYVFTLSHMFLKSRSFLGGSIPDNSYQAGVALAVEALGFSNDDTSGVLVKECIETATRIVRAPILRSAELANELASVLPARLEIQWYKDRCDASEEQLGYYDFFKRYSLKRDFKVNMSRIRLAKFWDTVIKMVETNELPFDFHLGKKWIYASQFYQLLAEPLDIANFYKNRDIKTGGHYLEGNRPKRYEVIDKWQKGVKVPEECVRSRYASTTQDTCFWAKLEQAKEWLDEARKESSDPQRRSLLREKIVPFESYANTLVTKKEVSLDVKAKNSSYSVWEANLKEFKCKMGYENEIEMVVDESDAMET
Nature of the test: split reporter; BiFC in rice variety Zhonghua 11 stem protoplasts co-transformed with nYFP and cYFP constructs; confocal microscopy.

As to OsEDS1-cYFP (from UniProt B7EQ08), the binding result is given as “binds”.
